Results as given in PubChem BioAssay AID504444 (National Center for Advancing Translational Sciences (NCATS), 2011).
The whole screen tested about 360,000 compounds, of which about 7,500 (2.1%) were called active. Inconclusive means that the source gave no clear call. Such entries were picked first, then a sample of the others. The call rests on the fitted dose curve; in most records, active means well fitted inhibition curve with a large enough effect; inconclusive means small, poorly fitted or top-dose-only effect, or effect the other way; inactive means flat fitted curve, though single readings scatter. Potencies beside an inconclusive call are fits to weak or partial responses and may not hold up.

assay: Nrf2 qHTS screen for inhibitors; conditions: A549 ARE-Fluc reporter, luciferase luminescence, 18-24 h; series mostly up to 46 µM; further: nearly all actives have a fitted effect of over 60% in size
In short: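 Nrf2 function is reported as luminescence of an ARE-controlled luciferase in A549 cells. Compounds were tested at several concentrations, and a CellTiter-Fluor read on the same wells flagged cytotoxicity.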
Potency means the concentration at half of the fitted maximal effect.

Row | Structure (SMILES) | Potency
1 | COc1ccc(Cc2nc(-c3ccc(-n4cccc4)cc3)no2)cc1OC | active: 16.4 µM
2 | CCn1c(=NC(=O)c2ccco2)sc2cccc(F)c21 | inconclusive: 0.82 µM [activator, full curve, poor fit]
3 | NC(=O)CC(NC(=O)Cc1ccc(Br)cc1)c1ccc(NC2CC3CCC2C3)c([N+](=O)[O-])c1 (stereo not given) | active: 18.4 µM
4 | COc1ccc(-c2nnc(SCC(C)C)o2)cc1 | inconclusive: 0.517 µM [activator, full curve, poor fit]
5 | NS(=O)(=O)c1ccc(CCNCC(=O)N2CCC(Cc3ccccc3)CC2)cc1 | inconclusive: 29.1 µM [activator, single point]
6 | COc1ccc(-c2nc(NC(=O)Cn3cnnn3)sc2C)cc1 | inactive
7 | O=C(COc1ccccc1Cl)N1N=C(c2cccs2)CC1c1ccco1 (stereo not given) | inconclusive: 6.51 µM [activator, partial curve]
8 | CC(Oc1ccccc1Cl)C(=O)Nc1ccc(S(=O)(=O)N2CCCC2)cc1 (stereo not given) | inconclusive: 20.6 µM [falling, single point]
9 | CC(=O)c1ccc(Nc2cc(C)nc3nc(Cc4ccccc4)nn23)cc1 | inactive
10 | Cc1nc2scc(-c3ccccc3)c2c(=O)n1/N=C/c1ccco1 | inconclusive: 20.6 µM [falling, single point]
11 | COc1ccc2[nH]c(-c3cccc(F)c3)cc(=O)c2c1 | inconclusive: 29.1 µM [activator, single point]
12 | Cc1ccc(Cn2cccc(NC(=O)NC3CCCCC3)c2=O)cc1 | inconclusive: 32.6 µM [falling, single point]
13 | COc1ccc(-c2cc(-c3ccccc3)nc(NN)n2)cc1OC | inconclusive: 29.1 µM [falling, single point]
14 | COc1ccc(NC(=S)N2CCC(Cc3ccccc3)CC2)cc1 | inactive
15 | CCn1c(SCC(N)=O)nc2sc3c(c2c1=O)CCCC3 | inconclusive: 3.26 µM [activator, partial curve, poor fit]
16 | CC(=O)Nc1ccc(Nc2ccc3cc(S(=O)(=O)N4CCCCC4)ccc3n2)cc1 | inconclusive: 29.1 µM [falling, single point]
17 | O=C(Nc1cc(Cl)ccc1Cl)C1Cc2ccccc2O/C1=N\O (stereo not given) | inconclusive: 16.4 µM [activator, partial curve, poor fit]
18 | CN(C(=O)COC(=O)c1cc(=O)[nH]c2ccccc12)C1CCCCC1 | inconclusive: 1.03 µM [activator, full curve]
19 | COc1ccc(C(=O)CCc2ccccc2)cc1 | inconclusive: 14.6 µM [activator, partial curve]
20 | Cc1c(/C=N/Nc2nc3ccccc3[nH]2)c2ccccc2n1C | inconclusive: 29.1 µM [falling, single point]
21 | CCC(=O)Nc1ccc(/C(C)=N/NC(=O)c2c(-c3ccccc3Cl)noc2C)cc1 | inactive
22 | O=C(NCC1CCCO1)c1ccc(NC(=O)c2ccc([N+](=O)[O-])cc2)cc1 (stereo not given) | inconclusive: 13 µM [falling, partial curve, poor fit]

An excerpt from above in order of SMILES length, smallest number first.
Row | Structure (SMILES) | Potency
15 | CCn1c(SCC(N)=O)nc2sc3c(c2c1=O)CCCC3 | inconclusive: 3.26 µM [activator, partial curve, poor fit]
17 | O=C(Nc1cc(Cl)ccc1Cl)C1Cc2ccccc2O/C1=N\O (stereo not given) | inconclusive: 16.4 µM [activator, partial curve, poor fit]
9 | CC(=O)c1ccc(Nc2cc(C)nc3nc(Cc4ccccc4)nn23)cc1 | inactive
18 | CN(C(=O)COC(=O)c1cc(=O)[nH]c2ccccc12)C1CCCCC1 | inconclusive: 1.03 µM [activator, full curve]
16 | CC(=O)Nc1ccc(Nc2ccc3cc(S(=O)(=O)N4CCCCC4)ccc3n2)cc1 | inconclusive: 29.1 µM [falling, single point]

The list continues:

Row | Structure (SMILES) | Potency
23 | Cc1ccc(NC(=O)C2COc3ccccc3O2)cc1S(=O)(=O)N1CCOCC1 (stereo not given) | inactive
24 | Cc1cc(C)n2c(Br)c(CN3CCCC(C)C3)nc2n1 (stereo not given) | inactive
25 | CC(NC(=O)c1cc2ccccc2o1)c1cccs1 (stereo not given) | inconclusive: 4.61 µM [activator, single point]
26 | CCOCCOC(=O)c1ccc2c(c1)N(Cc1ccccc1C#N)C(=O)c1ccccc1S2(=O)=O | inconclusive: 23.1 µM [activator, partial curve]
27 | CCOC(=O)CC(=O)CSc1nc2ccc(C)cc2cc1C#N | inconclusive: 16.4 µM [activator, partial curve]
28 | O=C(Nc1nc2ccccc2[nH]1)c1ccc(F)cc1 | inconclusive: 0.517 µM [activator, full curve, poor fit]
29 | CCOC(=O)c1cnc2ccc(OCC)cc2c1NCc1ccccc1OC | active: 6.51 µM
30 | CCN(c1ccccc1)S(=O)(=O)c1ccc(NC(=O)c2nc(S(C)(=O)=O)ncc2Cl)cc1 | active: 20.6 µM
31 | CSc1nnc(NC(=O)c2nc(S(=O)(=O)Cc3cccc(C)c3)ncc2Cl)s1 | inconclusive: 29.1 µM [falling, single point]
32 | COc1cc(NC(=O)c2ccno2)cc(C(=O)Nc2cccc(C(F)(F)F)c2)c1 | inconclusive: 29.1 µM [falling, single point]
33 | O=S(=O)(c1cccs1)N1CN(CC2CCCO2)c2nc3ccccc3nc21 (stereo not given) | inconclusive: 0.116 µM [falling, full curve, poor fit]
34 | CCOc1ccc(CCNC(=O)CCCn2c(=O)c3cccn3c3cccnc32)cc1 | inconclusive: 23.1 µM [falling, single point]
35 | COc1cc(OC)c(OC)cc1/C=N/n1c(COc2ccccc2)n[nH]c1=S | inconclusive: 29.1 µM [falling, single point]
36 | O=C(Nc1ccc2ccccc2c1)N1CCCN(CCOc2ccccc2)CC1 | inactive
37 | CCn1c(/C=C/c2c(C)[nH]c3ccccc23)nc2ccccc2c1=O | inconclusive: 7.31 µM [activator, single point]
38 | COc1cc(CNC(=O)c2cnc3c(-c4cccc(C)c4)c(C)nn3c2C)cc(OC)c1OC | active: 20.6 µM
39 | O=C(NCC(O)c1ccccc1)c1cccs1 (stereo not given) | inconclusive: 7.31 µM [activator, partial curve, poor fit]
40 | COc1ccc(CNc2nc(-c3cccnc3)nn2C(=O)C(C)C)cc1 | inconclusive: 0.0058 µM [activator, full curve, poor fit]
41 | Cn1cccc1C(=O)OCC(=O)Nc1ccc2c(c1)CCC2 | inconclusive: 1.84 µM [activator, full curve, poor fit]
42 | CN(CCCC(=O)Nc1ccc(Br)cc1F)S(=O)(=O)c1ccccc1 | inconclusive: 20.6 µM [falling, single point]
43 | COc1ccc(CCN(C)C(=O)c2cc(S(=O)(=O)N3CCCCCC3)ccc2OC)cc1OC | inconclusive: 20.6 µM [falling, partial curve]
44 | Cc1ccccc1OCC(=O)Nc1ccc2nc(SCC(=O)N3CCCC3)sc2c1 | active: 18.4 µM

Row | Structure (SMILES) | Potency
45 | Cc1ccc(S[C@@H](CCN2CC[C@H](C(C)(C)C)CCC2=O)c2ccccc2)cc1 | inconclusive: 25.9 µM [falling, single point]
46 | Cc1cc(C)cc(OCc2nnc(N)s2)c1 | inconclusive: 25.9 µM [activator, single point]
47 | C=CCOc1ccc(C2=NO[C@@H]3[C@@H]4C[C@@H]([C@H]5C(=O)N(C)C(=O)[C@@H]45)[C@H]23)cc1 | inconclusive: 16.4 µM [falling, partial curve, poor fit]
48 | Cn1c(/C=N/NC(=O)c2ccccc2)nc2ccccc21 | inconclusive: 0.184 µM [falling, full curve, poor fit]
49 | Cc1ccc(-c2nc(NC(=O)CSc3nnc4scc(-c5ccccc5)n34)ns2)cc1 | active: 20.6 µM
50 | CCOC(=O)c1cc(-c2ccc(OC)c(S(=O)(=O)N3CCN(c4ccccc4)CC3)c2)on1 | inconclusive: 3.66 µM [activator, partial curve]
51 | C[C@H](NC(=O)OC(C)(C)C)C(=O)N/N=C/C1=Cc2ccccc2OC1 | inconclusive: 0.461 µM [falling, full curve]
52 | COc1ccc(Cn2c(-c3ccc(OC)c(O)c3)nc3ccccc32)cc1O | inactive
53 | O=C(Nc1ccccc1)c1cc2c(=O)c3ccccc3oc2nc1C(F)(F)F | inconclusive: 29.1 µM [activator, partial curve, poor fit]
54 | COc1cc2c(cc1OC)C(C)N(C(=O)c1cc(C)on1)CC2 (stereo not given) | inconclusive: 8.2 µM [activator, partial curve, poor fit]
55 | CCOC(=O)c1c(-c2ccc(OC)c(OC)c2)csc1NC(=O)c1ccccc1F | inconclusive: 5.17 µM [falling, partial curve, poor fit]
56 | Cc1cccc(C)c1Nc1nnc(SC(C)C(=O)Nc2c(C)n(C)n(-c3ccccc3)c2=O)s1 (stereo not given) | inconclusive: 4.11 µM [falling, partial curve, poor fit]
57 | COc1ccc(C(=O)NCc2ccc(C)cc2)cc1S(=O)(=O)N1CCCC1 | inconclusive: 32.6 µM [falling, single point]
58 | O=S(=O)(c1ccc(SCCOc2ccc(Cl)cc2)nc1)N1CCCC1 | active: 18.4 µM
59 | CC(C)N(C(=S)Nc1cccc(S(=O)(=O)N(C)C)c1)c1ccccc1 | inconclusive: 13 µM [falling, partial curve, poor fit]
60 | Cc1ccc(NC(=O)CN2CCN(C(=O)C3CCCO3)CC2)c(C)c1 (stereo not given) | inconclusive: 11.6 µM [activator, partial curve, poor fit]
61 | O=C(c1cccc(S(=O)(=O)N2CCN(c3ccc(F)cc3)CC2)c1)N1CCCCCCC1 | inconclusive: 20.6 µM [falling, partial curve]
62 | COc1ccc(CNC(=O)C(C#N)c2nc3ccccc3nc2N2CCN(C)CC2)cc1 (stereo not given) | inactive
63 | CC1CCN(C(=O)Cn2cc(C(F)(F)F)ccc2=O)c2ccccc2S1 (stereo not given) | inconclusive: 0.731 µM [activator, full curve, poor fit]
64 | Cc1ccc(Nc2ncnc3c2nc2n3CCCC2)cc1F | inconclusive: 1.46 µM [activator, partial curve]
65 | Cc1cccc(NC(=O)N2CCC(NC(=O)c3ccco3)CC2)c1 | inconclusive: 11.6 µM [falling, partial curve, poor fit]
